From PMC3760890
Results are given in words; binding and its absence hold for the method and conditions named. For some assays here: Binding seen in cells or lysates may run through a third protein. Some results given as binding are weak or reduced against the parent protein; the word gives no strength. Tags and fused reporters may be left off the sequences shown.

B1: FLN1 (Fructokinase-Like Protein1), yeast two-hybrid fusion (protein, UniProt Q9M394 1-471)
chain: MASLLIFPHLHHFDSSLDRREVLVVRHSQASRRFLTPKASINGSGITNGAAAETTSKPSRKGRKKKQTSTVIEKDNTETDPELNPELADYDDGIEFPYDDPPLVCCFGAVQKEFVPVVRVHDNPMHPDMYSQWKMLQWDPPEFGRAPGGPPSNVAISHVRLGGRAAFMGKVGEDDFGDELVLMMNQERVQTRAVKFDENSKTACTRVKIKFKDGKMMAETVKEPPEDSLFASELNLAVLKEARIFHFNSEVLTSPTMQSTLFTAIQWSKKFGGLIFFDLNLPLPLWRSRNETRKLIKKAWNEANIIEVSQQELEFLLDEDYYERRRNYTPQYFAEDFDQTKNRRDYYHYTPEEIKSLWHDKLKLLVVTDGTLRLHYYTPTFDGVVIGTEDVLITPFTCDRTGSGDAVVAGIMRKLTTCPEMFEDQDVMERQLRFAVAAGIIAQWTIGAVRGFPTESATQNLKEQVYVPSMW
B2: FLN2-His (protein, UniProt F4I0K2 45-614)
chain: AAGRRKLSESAPLEEEGNDGNGAVVGKKPSKSVKRTTKKKVVVKDEPLEEISEFLVDNDDVLDKESIVSALKPKKTRTRKKAAAASSDVEEVKTEKKVRRKRTVKKDKDVEDDLATIMDAEVSDVEEALAVESTDTESEEEEIDLSKHEGEDISHTYGWPPLVCCFGSAQHAFVPSGRPANRLLDYELHERMRDAKWAPEKYIRAPGGCAGGVAIALASLGGKVAFMGKLGADDYGQAMLYYLNVCKVQTRSVKIDGKRVTACSTMKISKRGRLKSTCIKPCAEDSLSKSEINVDVLKEAKMFYFSTHSLLDKKMMSTTIQAIKISKQLGNVIFYDLNLPLPLWHSSEETKSFIQEVWNLADVIEITKQELEFLCGIEPTEEFDTENNDISKFVHYPPETVEQLWHENLKVLFVTNGTSKIHYYTKEHNGAVSGMEDVPITPFTRDMSASGDGIVAGLIRMLTVQPDLMNNKGYLERTARYAIECGIIDQWLLAQTRGYPPKDDMEEEEDDEEEDEVESDPNGIRSITEKEYRTSKPYDEPDGPYVMKPVEEREYKKLELVGSMFEDGSL

How the values were obtained:
[1] = biological target: FLN1 (Fructokinase-Like Protein1), yeast two-hybrid fusion (Arabidopsis thaliana) (UniProt Q9M394); experiment: two-hybrid; pairwise tests in yeast, pGBKT7 (BD) and pGADT7 (AD) fusions
[2] = biological target: T1, GST-pTAC5 (Arabidopsis thaliana) (UniProt A1A6M1); experiment: pull-down; GST-fused and His-fused proteins from E. coli incubated with glutathione sepharose 4B beads 2 h at 4 °C; washed with 20 mM Tris-HCl, 0.1 mM EDTA, 100 mM NaCl, 0.2% Triton X-100, pH 7.4; protein gel blots
T1 sequence: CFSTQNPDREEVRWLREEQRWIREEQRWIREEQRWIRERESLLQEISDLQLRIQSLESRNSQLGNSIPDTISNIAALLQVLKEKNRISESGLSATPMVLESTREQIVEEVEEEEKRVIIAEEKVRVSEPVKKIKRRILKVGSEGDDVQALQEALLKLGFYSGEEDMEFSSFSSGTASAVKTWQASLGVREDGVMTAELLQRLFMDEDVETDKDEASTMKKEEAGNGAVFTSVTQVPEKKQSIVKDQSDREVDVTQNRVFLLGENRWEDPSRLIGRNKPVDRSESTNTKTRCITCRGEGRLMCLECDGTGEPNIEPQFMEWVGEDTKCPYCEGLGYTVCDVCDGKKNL

Binder | binding [1] | binding [2]
B1 | binds | –
B2 | – | binds
